Results are given in words; binding and its absence hold for the method and conditions named. Some entries that bind do so weakly or less than the wild type.

The target in this experiment is T1, mouse Vipr2 (receptor for vasoactive intestinal peptide) (mouse) (UniProt P41588).
T1 sequence: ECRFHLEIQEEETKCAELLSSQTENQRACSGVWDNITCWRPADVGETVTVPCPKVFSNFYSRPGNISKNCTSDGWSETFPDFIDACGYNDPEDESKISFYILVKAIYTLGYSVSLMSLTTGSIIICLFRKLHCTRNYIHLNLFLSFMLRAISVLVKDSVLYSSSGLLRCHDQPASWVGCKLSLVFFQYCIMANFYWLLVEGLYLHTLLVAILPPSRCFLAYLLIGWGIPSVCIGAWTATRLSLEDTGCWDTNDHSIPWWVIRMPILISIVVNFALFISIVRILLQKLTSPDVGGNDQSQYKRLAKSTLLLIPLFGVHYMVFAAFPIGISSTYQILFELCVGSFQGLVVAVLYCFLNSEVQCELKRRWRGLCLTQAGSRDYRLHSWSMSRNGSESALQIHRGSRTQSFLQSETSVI
Nature of the experiment: radioligand binding; membrane fractions (10 ug protein) of Flp-In TREx293-Gpr176(tet-on)/Vipr2 cells, with or without Dox, incubated with 1, 10 or 100 nM [125I]-Vip in HBSS, 5 mM HEPES pH 7.5, 0.1% BSA, 60 min at 4 C; bound peptide separated by centrifugation; specific binding by subtracting the radioactivity of parental Flp-In TREx293 cells; only the binder purified.

As to HSDAVFTDNYTRLRKQMAVKKYLNSILN (peptide, UniProt P01282 125-152, 125I label (position not given)) [[^125I]-labelled vasoactive intestinal peptide (Vip)], the binding entry is listed as “binds”.

The record behind these values is PMC4757782.
